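Viability assay of Plasmodium falciparum sporozoites; the read-out is not stated. The concentration is filed as 10 mM, unlikely as a test dose, so the dose is not known. Higher reads as lower viability (inferred: compounds with an IC50 in retests scored well above the rest). Strong results were mostly tested again. About 34,000 compounds were tested under these conditions; 0.84% (about 280) showed 50% or more at least once.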

Results are given as percent effect.
The controls that fix the scale are not given in the record; negative values are as filed.
This is an unselected part of the compounds tested.
Two or more numbers in one place are separate tests of the same structure; such repeats can differ widely.

- COCC(=O)N1CCCCC1c1nc(C)c2c(n1)N(CC1CC1)C(=O)C2 (stereo unspecified) | 9.106%
- Cc1ccoc1C(=O)NCC(Cc1ccc(F)cc1)C(N)=O (stereo unspecified) | -6.705%
- Cc1ccc(N2CCCC(NCc3cc(C)on3)C2)nn1 (stereo unspecified) | -1.621%
- CC1CCCCN1C(=O)c1n[nH]c(=O)c2ccccc12 (stereo unspecified) | -3.491%
- CN(CCc1ccccn1)C(=O)c1cnn(-c2ccccc2F)c1N | -5.321%
- Cc1nc(-c2ccco2)ccc1C(=O)N1CCn2c(C)nnc2C1 | -2.267%
- C1CC(CN2CCc3c(nnn3CC3CC3)C2COCC2CC2)C1.O=C(O)C(F)(F)F (stereo unspecified) | 0.9732%
- CCn1ccnc1CNCC1CCCN1c1cccnn1 (stereo unspecified) | -14.95%
- O=C1NC(=O)c2c3c(nc(O)c21)CCCC3 | -19.04% & -16.96% & 3.732%
- CC(=O)N1CCCC1C(=O)NCCOc1ccc(C(C)C)cc1 (stereo unspecified) | 0.2387%
- COCCN1CCCC(O)(CN2CCN(c3ccncc3C)CC2)C1=O (stereo unspecified) | -6.725%
- COCCN1CC[C@@H](O)[C@@H]1Cc1ccccc1.O=C(O)C(F)(F)F | 8.553%
- CC(C)Cc1nc(CN2CCN(CC(O)c3ccccc3)CC2)no1 (stereo unspecified) | -44.91% & -47.31% & 2.153%
- [H][C@@]12CN(C(=O)[C@H]3CCCO3)C[C@@]1([H])N(CC(C)C)C(=O)CO2 | 6.229% & 11.43%
- Cc1nc(C2CCNC2)nc2c1CCC(=O)N2C.Cl (stereo unspecified) | 5.721%
- NS(=O)(=O)Cc1cccc(C(=O)N2CCCC(n3cccn3)C2)c1 (stereo unspecified) | -13.84%
- NC(=O)CS(=O)(=O)Cc1cc(Cl)c2c(c1)OCCCO2 | -2.728%
- Cc1ccc(CN2CC(O)CN(C(=O)OCC(C)C)CC2=O)cc1 (stereo unspecified) | -33.24%
- Clc1ccccc1-c1nc(CNC2CCc3ncnn3C2)co1 (stereo unspecified) | -4.424%
- O=C(CC1CC1)N1CCC(O)(CN2CCN(c3ccccc3)CC2)C1 (stereo unspecified) | 8.12%
- CN(C)CCNC(=O)c1ccc2ccc(N(C)CC3CC3)n2c1 | 3.069%
- CCN1CCN(C(=O)CCn2cccc2)CC1 | -1.726%
- COc1ccc(CN2CCC3(CC(=O)N(c4cncnc4)C3)C2)cc1.O=C(O)C(F)(F)F (stereo unspecified) | 2.743%
- CC(=O)Nc1nc(CN(C)CC2CCCN2c2cccnn2)cs1 (stereo unspecified) | -4.72%
- O=C(O)C(F)(F)F.[H][C@@]12COC[C@H](C(=O)N3CCCCO3)[C@]1([H])CN(C1CCCC1)C2 | -10.5%
- O=C(CCn1cccn1)NS(=O)(=O)N1CCCc2ccccc21 | 88.08% & 94.17% & 83.19%
- Cc1csc(C(=O)N2CCC(O)(CN3CCc4ccccc4C3)C2)c1 (stereo unspecified) | 0.5021%
- O=C(CCNc1ncccn1)N1CCCC(n2ccnc2)C1 (stereo unspecified) | -9.308%
- CCOc1cc(C(=O)N2CCCC(c3cc(C(N)=O)[nH]n3)C2)ccn1 (stereo unspecified) | -2.037%
- CC(C)Oc1ccc(Cl)c(C(=O)N2CCN(CCO)CC2)n1 | -0.5205%
- Cc1ccc(CN2CCC3(CC(C(=O)NCC4CC4)=NO3)C2)cc1C (stereo unspecified) | 0.3247%
- [H][C@]12CN(c3ncccn3)C[C@@]1([H])S(=O)(=O)CC[C@H]2C(=O)N1CCOCC1 | 11.14%
- Cc1cc(CC(=O)NC(C)c2ccc(OCC3CC3)c(F)c2)n[nH]1 (stereo unspecified) | 10.33%
- Cc1ncsc1C(=O)N1CCCC(c2nccn2Cc2cscn2)C1 (stereo unspecified) | 5%
- CC(C)c1nc2cc(NC(=O)c3n[nH]c4c3CCC4)ccc2n1C | 73.89% & 87.21%
- CNC(=O)c1cccc(CCNS(C)(=O)=O)c1 | -17.53%
- [H][C@@]12CCN(Cc3ccccn3)C[C@]1([H])[C@@H](CNc1ncccn1)OC2 | -11.8%
- c1cc(-c2cnc(C3CCNCC3)cn2)n[nH]1 | -6.119%
- Cc1cc(NC(=O)Cn2ccccc2=O)n(C)n1 | -5.673%
- Cc1noc(C)c1C(=O)NCc1ccc(N2CCC(C)CC2)nc1 | 7.821%
- Cn1cnnc1-c1ccnc(NCc2ccccc2)c1 | -5.867%
- O=C(c1ccncc1)N1CCC(c2nc(O)cc(-c3cccnc3)n2)C1 (stereo unspecified) | -14.42%
- [H][C@@]12CCN(C(=O)c3occc3C)C[C@@]1([H])O[C@H](c1noc(C)n1)C2 | -2.273%
- COc1cccc(OC)c1C(=O)N1CC(=O)N(C2CCC2)CC(O)C1 (stereo unspecified) | -47.41%
- Cc1cnn(CCNCc2nnc(-c3ccccc3)o2)c1 | 5.402%
- Nc1cc(CCC2CN(Cc3ccc4c(c3)OCCO4)CCO2)ccn1 (stereo unspecified) | -5.69%
- c1cnc(Nc2cncc(C3CCCN(c4ncccn4)C3)n2)nc1 (stereo unspecified) | 12.26%

The first 3 entries again:

For COCC(=O)N1CCCCC1c1nc(C)c2c(n1)N(CC1CC1)C(=O)C2 (stereo unspecified) the result was 9.106%.
For Cc1ccoc1C(=O)NCC(Cc1ccc(F)cc1)C(N)=O (stereo unspecified) the result was -6.705%.
For Cc1ccc(N2CCCC(NCc3cc(C)on3)C2)nn1 (stereo unspecified) the result was -1.621%.

Measurements from “University of Dundee, Small-Polar-MMV Screening Library” (2021), ChEMBL document CHEMBL3988442.